Our source for the growth estimate values is the supplement of paper PMC5949888.

Most values lie at the floor of the assay. Slopes are relative: functional sequences can read slightly below zero.

The data set has as its system Saccharomyces cerevisiae PS128 hsf1 delta, HSF1(1-493) fusion. Briefly: growth estimate (transactivation domain function in HSF1 fusion, heat-shock survival) (a.u. (slope of normalised read count over time)); higher = stronger growth at 37°C, i.e. more transactivation activity. To be noted: library: random library.
With VAGA, the growth estimate was less than -0.25. GILDSCQGSPEL: the growth estimate was less than -0.25. Consider AEVLFGFSAIGMTGSTDNSD, for which the growth estimate was less than -0.25. The figure for FRSTCSLL is less than -0.25. On to EMPLLRVLVCIPVIMVRWGR, for which the growth estimate was less than -0.25. PMMLTIPIGWTNDDTEHTY: the growth estimate is less than -0.25.

For RDMSVPVAIHQFL, the growth estimate is less than -0.25.

HATLRG: the growth estimate is less than -0.25. Turning to TVVCISLVRLA, the growth estimate is less than -0.25. To WRKSLEGINSDNLRPVNVPS belongs -0.246; to GKLFQVTSWIGQS, less than -0.25; to GRTLPFGCL, less than -0.25. The figure for ELEGSVPC is less than -0.25; for YRTVAIVATKTGVLRIEDGE it is less than -0.25; for VYRSVAHVRQTVTYLPRTYL it is less than -0.25. On to SIQGEFRMHAGDRVSNRKYQ, for which the growth estimate is less than -0.25.

In the case of RHINRRTNSSP, the growth estimate is less than -0.25. The figure for IDSY is less than -0.25. As for RLRGKNFLSEARVSDIPSET, the growth estimate is less than -0.25. With RWAIRTH, the growth estimate is less than -0.25. WFLDHIGYI: the growth estimate was less than -0.25. Take QFGILLVLLVQEHIWTRTKH: the growth estimate was less than -0.25.

CKFRGHLEHCLAPVYITQA: the growth estimate was less than -0.25. With RMLRYGVTLTITHGLLIPCY, the growth estimate is -0.126. With STWEVRTSGGISYL, the growth estimate was less than -0.25.

Take WVRENRKSSAFCMDGNPPAT: the growth estimate is less than -0.25. For RGATQGVLCDVRGYDWDDIT, the growth estimate is less than -0.25. To HRPISTIYERLGTLSES belongs less than -0.25. To GSGLLILVTFHDKQ belongs less than -0.25; to ETLSQSTDTLLFRGPG, less than -0.25.

Consider ITEDFSRSAFEWCNTRVMPL, for which the growth estimate is less than -0.25. RDAKKGSNYLGTVGTGGTFC: the growth estimate is less than -0.25. On to LIGR, for which the growth estimate is less than -0.25. Consider SRIFR, for which the growth estimate was -0.243.

As for GCCRDLAWVAD, the growth estimate was less than -0.25. To AVCVESKFQDGTKSADSSHG belongs less than -0.25; to CLSYLPNRKIGRTGRVDSVP, less than -0.25.

With SNGLGRRLQ, the growth estimate is less than -0.25. Regarding VGMSCKRMRKPQ, the growth estimate is less than -0.25.

As to PKSRGIRSHS, the growth estimate was less than -0.25. Consider PEHTPWV, for which the growth estimate is less than -0.25.

In the case of RTVSVRGGRVGC, the growth estimate is less than -0.25. As for MGWIPAFMGPHNKRGSLAKL, the growth estimate is 0.161. As to FHPC, the growth estimate is less than -0.25. For VPRRSPRLDCMLVDERDLGC, the growth estimate was less than -0.25. Turning to DKRPPCKHRQCGKCTH, the growth estimate is less than -0.25. In the case of LMDVRFV, the growth estimate is less than -0.25. In the case of VTSRVVGSIRGHSVSDFGTS, the growth estimate was less than -0.25.

Consider EVEQVINGSGPQHVDGRSRT, for which the growth estimate is less than -0.25. As to FGNVGQTQGVGIVTILHWTR, the growth estimate is less than -0.25. Take CVLNYLLGGLAFSSSV: the growth estimate was -0.0485. As to GDFL, the growth estimate is less than -0.25. To CTPTGLISVKPTQAW belongs less than -0.25.

Turning to QLYPLVVIATM, the growth estimate was -0.243. In the case of QGCPE, the growth estimate is less than -0.25. The figure for YAVTKHSR is less than -0.25; for FKSTRADSHRAGKCGSACFR it is less than -0.25; for LVTWGGGLRLLIIGHEVDGL it is less than -0.25. On to GLRPVRKPFDICKLWASSTS, for which the growth estimate is less than -0.25. The figure for GSDI is less than -0.25.

Take VRGKVQDNKGGIPRFLAMSS: the growth estimate is less than -0.25. For YKAGSYRTRFDGSLGFESPR, the growth estimate was less than -0.25. The figure for GFRKG is less than -0.25. On to IESRQWLRSER, for which the growth estimate is less than -0.25.
